This note sets out measurements from the supplement of paper PMC8166895.

Counter-ions that a name gives are not always drawn. This is one part of the list. Most values lie at the level of the controls, where differences are scatter.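 Differential scanning fluorimetry gave melting temperatures in a one-replicate pilot screen of a library of approved drugs plus clinical or known-target compounds. Hits increasing melting point at least 2 °C were the strongest stabilizers, while negative shifts signify destabilization.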 Where a SMILES comes first, the peptide text is derived from it. Bridges are numbered along the chain shown (N, C = ends). [ ]: non-standard residue; d: D form. Orn = NCCC[C@H](N)C(=O)O; Mpa = O=C(O)CCS

The assay deals with SARS-CoV-2 main protease (Mpro, nsp5). Briefly: thermal shift ΔTm of Mpro relative to plate average Tm; higher = stronger thermal stabilization of Mpro (binding). Particulars: 10 µM; protein concentration 1 µM.
For the molecule `O=c1[nH]c(=O)c2ccccc2o1` [Carsalame], the “thermal shift ΔTm of Mpro” value stood at 0.039 °C. Then `Cc1[nH]c2ccccc2c1CCNCc1ccc(/C=C/C(=O)NO)cc1` [Panobinostat (LBH589)], with 0.054 °C; and `COc1ccnc(C[S+]([O-])c2nc3cc(OC(F)F)ccc3[nH]2)c1OC` (centres undefined) [Pantoprazole Sodium Hydrate], with 0.0387 °C; and `Cc1cc(C)c(S(=O)(=O)n2cc(C)cc2C)c(C)c1`, with -0.309 °C. Then `COC1CCN(C(=O)c2cc(Cc3n[nH]c(=O)c4ccccc34)ccc2F)CC1`, with -0.0834 °C; and `CC(=O)N[C@@H](C=O)[C@@H](O)[C@H](O)[C@H](O)CO` [N-Acetyl-D-Glucosamine], with 0.0292 °C; and `c1cncc(CN2CCC(n3ncc4c(N5CCOCC5)nc(-c5ccc6[nH]ccc6c5)nc43)CC2)c1`, with -0.303 °C. The same measure for `CN(C)CC#Cc1ccc(OCCCc2sc(N3CCc4cccc(C(=O)Nc5nc6ccccc6s5)c4C3)nc2C(=O)O)c(F)c1`: -0.207 °C; for `CNCCN(C)Cc1c[nH]nc1-c1ccc(O[C@H]2C[C@H](OCCC3CCOCC3)C2)cc1`: -0.015 °C; for `O=C1C(=O)c2ccccc2C(O)=C1C1CCC(c2ccc(Cl)cc2)CC1` (centres undefined) [Atovaquone]: 0.239 °C. With `CCN(CC)C(=O)c1ccc(C2=CC3(CCNCC3)Oc3cccc(O)c32)cc1`, the “thermal shift ΔTm of Mpro” value is -0.011 °C. As to `CCOc1ccccc1OC(c1ccccc1)C1CNCCO1` (centres undefined) [Reboxetine mesylate], the “thermal shift ΔTm of Mpro” value is -0.0845 °C. Then `O=c1[nH]cnc2c1ncn2[C@@H]1O[C@H](CO)[C@@H](O)[C@H]1O` [Inosine], with -0.0704 °C. The same measure for `CC(=O)N1CCC2(CC1)c1cc(C#C[C@H]3O[C@H](CO)[C@@H](O)[C@H](O)[C@@H]3O)ccc1-c1ccc(C#C[C@H]3O[C@H](CO)[C@@H](O)[C@H](O)[C@@H]3O)cc12` [Antibiotic-202]: 0.032 °C; for `O=C1NC(=O)/C(=C/c2ccc3c(c2)OC(F)(F)O3)S1`: 0.197 °C. In the case of `N#CC(C#N)=Cc1ccc([N+](=O)[O-])c(O)c1`, the “thermal shift ΔTm of Mpro” value was 0.0764 °C. Then `COc1cc([C@@H]2c3cc4c(cc3[C@@H](O[C@@H]3O[C@@H]5CO[C@@H](c6cccs6)O[C@H]5[C@H](O)[C@H]3O)[C@H]3COC(=O)[C@H]23)OCO4)cc(OC)c1O` [Teniposide], with -0.116 °C; and `Cc1nc(-c2cccnc2)sc1C(=O)Nc1ccccc1-c1cn2c(CN3CCOCC3)csc2n1`, with -0.0813 °C; and `CCOc1ccc(C[C@H]2NC(=O)CCSSC[C@@H](C(=O)N3CCC[C@H]3C(=O)N[C@@H](CCCN)C(=O)NCC(N)=O)NC(=O)[C@H](CC(N)=O)NC(=O)[C@H]([C@@H](C)O)NC(=O)[C@H]([C@@H](C)CC)NC2=O)cc1` [Atosiban] ([Mpa][dY](Et)ITNCP[Orn]G-NH2; disulfide 1-6), with 0.0181 °C. Then `c1ccc2c(c1)[nH]c1cnccc12` [Norharmane], with 0.0472 °C.

Regarding `O=C(O)c1c[nH]c2cc(Cl)c(-c3ccc(C4(O)CCC4)cc3)cc12`, the “thermal shift ΔTm of Mpro” value was -0.0873 °C. Then `O=c1ccc2ccccc2o1` [Coumarin], with -0.0174 °C; and `Nc1ccc(C(=O)Nc2cccc(-c3nc(N4CCOCC4)c4oc5ncccc5c4n3)c2)cn1`, with 0.142 °C. The same measure for `CN(C)CCCN1c2ccccc2Sc2ccc(Cl)cc21` [Chlorpromazine HCl]: -0.0442 °C.
